Assay results: patent publication US20170362314A1
Results are given in words; binding and its absence hold for the method and conditions named. Some results given as binding are weak or reduced against the parent protein; the word gives no strength.

By UniProt entry, the sequences of proteins in these tests, tags left out. Where a name states a change or a piece, a line headed by the entry shows the natural chain unless it says otherwise.
UniProt P48061: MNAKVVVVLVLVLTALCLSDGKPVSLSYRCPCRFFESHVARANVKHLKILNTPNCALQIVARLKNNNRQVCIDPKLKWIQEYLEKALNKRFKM

B1: 114_3H1 Fab (Fab, V domains shown)
VH: QVQLVQSGAEVKKPGASVKVSCKVSGYTLTELSMHWVRQAPGKGLEWMGGFDPEDGETIYAQKFQGRVTMTEDTSTDTAYMELSSLGSEDTAVYYCARRVWGSYRPNDAFDIWGQGTLVTVSS
VL: DIQMTQSPSSLSASVGDRVTITCRASQSISDYVNWYQQKPGKAPNLLMFAASTSQSGVPSRFTGSGSGTDFTLTISSLQPEDFATYFCQQSYSPPYTFGQGTKVEIKR
B2: 113_1H12 Fab (Fab, V domains shown)
VH: EVQLVQSGAEVKKPGASVKVSCKTSGYTFTNYGISWVRQAPGQGLEWMGWISAYNGNTNYAQKLQGRVTMTTDTSTSTAYMELRSLRSDDTAVYYCARAGGVYYDYFTDYWGQGTMVTVSS
VL: QSELTQPPSASGTPGQRVTISCSGSRSNIGSNSVNWYQQLPGTAPKLLIYNNDERPSGVPDRFSGSKSGTSASLAISGLQSEDEADYFCAAWDDSLNVGELFGGGTKLTVLG

Tests used:
[1] = target: biotinylated CXCL12 (synthesised 68 amino acid CXCL12) (human) (UniProt P48061); assay: SPR off-rate screen, Fab format
[2] = target: biotinylated CXCL12 (synthesised 68 amino acid CXCL12) (human) (UniProt P48061); assay: SPR: Fab over biotinylated CXCL12 on a streptavidin chip

Binder | binding [1] | binding [2]
B1 | binds | –
B2 | binds | binds
